In paper PMC2429963 one finds binding data, which are given here for one substance.

Chains of the proteins cited; added tags and fusions are not shown. Residues count along the entry.
UniProt P05067, residues 672-770: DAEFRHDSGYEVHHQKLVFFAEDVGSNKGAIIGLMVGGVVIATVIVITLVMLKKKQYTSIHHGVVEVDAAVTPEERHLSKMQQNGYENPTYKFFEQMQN

The target of the assay is T1, GST-Ubqn (Drosophila Ubiquilin) (Drosophila) (UniProt Q9VWD9).
T1 sequence: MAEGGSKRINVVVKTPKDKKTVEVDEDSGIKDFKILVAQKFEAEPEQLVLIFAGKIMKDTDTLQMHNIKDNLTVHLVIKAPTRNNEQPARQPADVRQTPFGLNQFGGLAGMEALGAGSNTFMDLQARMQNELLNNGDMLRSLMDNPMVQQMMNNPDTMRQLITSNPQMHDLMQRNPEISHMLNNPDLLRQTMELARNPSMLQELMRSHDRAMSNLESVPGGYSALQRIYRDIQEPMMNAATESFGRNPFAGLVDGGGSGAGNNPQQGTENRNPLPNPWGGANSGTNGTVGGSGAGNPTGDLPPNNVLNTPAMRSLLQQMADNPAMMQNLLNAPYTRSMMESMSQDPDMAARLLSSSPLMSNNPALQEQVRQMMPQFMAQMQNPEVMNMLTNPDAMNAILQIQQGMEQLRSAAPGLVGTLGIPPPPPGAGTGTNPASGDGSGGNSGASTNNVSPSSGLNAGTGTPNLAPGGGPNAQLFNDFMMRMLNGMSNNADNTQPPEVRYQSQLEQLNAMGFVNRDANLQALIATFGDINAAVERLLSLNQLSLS
The assay can be described thus: pull-down; 10 ug GST fusion proteins retained on 15 uL glutathione beads, mixed with 400 ug lysate of S2 cells transfected with Myc-tagged C99 in 1 mL; eluted by boiling in Laemmli buffer; Western blot with anti-Myc; only the target purified.

Results are given in words; binding and its absence hold for the method and conditions named. In cells and extracts the contact can be indirect. Some results given as binding are weak or reduced against the parent protein; the word gives no strength. Where a sequence is shown, tags or fusion partners need not be part of it.

“C99-9Myc (C99 fragment of human APP, Myc-tagged) (from UniProt P05067 672-770) (domain or fragment)”: the binding entry is on record as “binds”.
